Assay results as given in article PMC4409120.
These are yes or no findings as the source states them, for the method shown. Binding seen in cells or lysates may run through a third protein. Some results given as binding are weak or reduced against the parent protein; the word gives no strength.

T1: endogenous TRAF6 of primary CD8+ CTLs (mouse (endogenous in OT-I CD8+ CTLs)) (UniProt P70196)
T1 sequence: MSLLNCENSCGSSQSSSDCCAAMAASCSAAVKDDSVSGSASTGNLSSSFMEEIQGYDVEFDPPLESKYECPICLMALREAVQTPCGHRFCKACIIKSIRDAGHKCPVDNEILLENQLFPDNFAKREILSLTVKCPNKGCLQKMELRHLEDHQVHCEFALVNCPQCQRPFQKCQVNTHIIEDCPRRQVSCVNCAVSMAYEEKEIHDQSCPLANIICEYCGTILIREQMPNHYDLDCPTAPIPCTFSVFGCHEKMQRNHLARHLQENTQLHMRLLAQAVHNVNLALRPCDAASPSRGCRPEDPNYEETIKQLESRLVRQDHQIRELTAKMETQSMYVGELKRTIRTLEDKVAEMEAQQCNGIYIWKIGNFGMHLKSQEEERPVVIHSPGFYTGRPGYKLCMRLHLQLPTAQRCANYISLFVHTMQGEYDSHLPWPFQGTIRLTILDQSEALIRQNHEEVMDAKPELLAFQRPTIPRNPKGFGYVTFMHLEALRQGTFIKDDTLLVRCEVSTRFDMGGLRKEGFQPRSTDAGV


Biological target: T1, endogenous TRAF6 of primary CD8+ CTLs (mouse (endogenous in OT-I CD8+ CTLs))
Assay: co-IP

Row | binding | Binder
1 | binds | endogenous TAK1 of primary CD8+ CTLs (protein, UniProt Q62073 1-579) MSTASAASSSSSSSASEMIEAPSQVLNFEEIDYKEIEVEEVVGRGAFGVVCKAKWRAKDVAIKQIESESERKAFIVELRQLSRVNHPNIVKLYGACLNPVCLVMEYAEGGSLYNVLHGAEPLPYYTAAHAMSWCLQCSQGVAYLHSMQPKALIHRDLKPPNLLLVAGGTVLKICDFGTACDIQTHMTNNKGSAAWMAPEVFEGSNYSEKCDVFSWGIILWEVITRRKPFDEIGGPAFRIMWAVHNGTRPPLIKNLPKPIESLMTRCWSKDPSQRPSMEEIVKIMTHLMRYFPGADEPLQYPCQYSDEGQSNSATSTGSFMDIASTNTSNKSDTNMEQVPATNDTIKRLESKLLKNQAKQQSESGRLSLGASRGSSVESLPPTSEGKRMSADMSEIEARIVATAGNGQPRRRSIQDLTVTGTEPGQVSSRSSSPSVRMITTSGPTSEKPARSHPWTPDDSTDTNGSDNSIPMAYLTLDHQLQPLAPCPNSKESMAVFEQHCKMAQEYMKVQTEIALLLQRKQELVAELDQDEKDQQNTSRLVQEHKKLLDENKSLSTYYQQCKKQLEVIRSQQQKRQGTS
2 | binds | endogenous ADAP of primary CD8+ CTLs (protein, UniProt O35601 1-819) MAKFNTGSNPTEEAATSSRPFKVAGQSSPSGIQSRKNLFDNQGNASPPAGPSSMPKFGTTKPPLAAKPTYEEKPEKEPKPPFLKPTGGSPRFGTQPNSVSRDPEVKVGFLKPVSPKPTSLTKEDSKPVVLRPPGNKLHNLNQESDLKTPGPKPGPAPPVPENELKPGFSKVAGAKSKFMPAAQDTDSKPRFPRHTFGQKPSLSTEDSQEENTSKNVPVQKGSPVQLGAKSKGAPFKPPKEDPEDKDHGAPSSPFPGVVLKPAASRGSPGLSKNFEEKKEDRKTDLAKNIFLNKLNQEEPARFPKAPSKLTAGTPWGQSQEKEGDKNSATPKQKALPPLSVLGPPPPKPNRPPNVDLTRFRKADSANSATKSQTPYSTTSLPPPPPTHPASQPPLPASHPAHPPVPSLPPRNIKPPLDLKHPINDENQDGVMHSDGTGNLEEEQESEGETYEDIDSSKERDKKREKEEKKRLELERKEQKEREKKEQELKKKFKLTGPIQVIHHAKACCDVKGGKNELSFKQGEDIEIIRITDNPEGKWLGRTARGSYGYIKTTAVEIDYDSLKRKKNSLNAVPPRLVEDDQDVYDDVAEQDAPNSHGQSGSGGMFPPPPTDDEIYDGIEEEDDDDGSVPQVDEKTNAWSWGILKMLKGKDDRKKSIREKPKVSESDNNEGSSLPSQHKQLDVGEEVYDDVDASDFPPPPAEMSQGMSVGRAKTEEKDPKKLKKQEKEEKDLRKKFKYDGEIRVLYSTKVASSLTSKKWGARDLQIKPGESLEVIQSTDDTKVLCRNEEGKYGYVLRSYLVDNDGEIYDDIADGCIYDND
